Measurements reported in US20190323012.

The chains behind the UniProt entries cited, without tags or fusion partners. Residues count along the entry.
UniProt P01375, 77-233: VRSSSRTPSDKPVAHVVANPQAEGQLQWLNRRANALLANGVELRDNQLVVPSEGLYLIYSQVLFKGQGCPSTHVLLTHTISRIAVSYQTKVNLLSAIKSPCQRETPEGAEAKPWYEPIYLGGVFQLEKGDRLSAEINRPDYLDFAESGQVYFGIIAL

Experiments:
[1] = molecular target: T1, IGF-BP1 (insulin-like growth factor-binding protein 1) (UniProt P08833); assay: SPR; details: 2'-F on all C and U; specificity control; seldom bound; purified recombinant protein; protein details: ThermoFisher
T1 sequence (looked up, limits assumed): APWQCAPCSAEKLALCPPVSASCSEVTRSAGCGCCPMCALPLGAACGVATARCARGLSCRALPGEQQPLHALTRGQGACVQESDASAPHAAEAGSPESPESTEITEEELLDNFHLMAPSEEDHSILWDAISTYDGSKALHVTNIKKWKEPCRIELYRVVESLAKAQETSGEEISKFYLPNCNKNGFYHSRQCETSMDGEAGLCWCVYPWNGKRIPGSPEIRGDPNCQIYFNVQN

TNF-alpha (Homo sapiens) [2] = molecular target: TNF-alpha (Homo sapiens) (UniProt P01375); assay: activity in cells; details: 2'-F on all C and U, inhibits TNF-alpha induced NO generation in RAW 264.7 cells at 2 ug/mL, TNF-alpha species not stated in this assay, purified recombinant protein
TNF-alpha (Homo sapiens) [3] = molecular target: TNF-alpha (Homo sapiens) (UniProt P01375); assay: ELONA; details: 2'-F on all C and U; plate-based binding assay, average of five experiments; reported as binding affinity; DPBS, 0.1% BSA, room temperature; purified recombinant protein
TNF-alpha (Homo sapiens) [4] = molecular target: TNF-alpha (Homo sapiens) (UniProt P01375); assay: EMSA; details: 2'-F on all C and U; 30 mM Tris-HCl pH 7.5, 150 mM NaCl, 1.5 mM MgCl2, 2 mM DTT, tRNA, room temperature; radiolabeled RNA 50 pM; purified recombinant protein

Row | Sequence | binding result [1] | functional effect of the aptamer (TNF-alpha (Homo sapiens) [2]) | Kd (TNF-alpha (Homo sapiens) [3]) | Kd (TNF-alpha (Homo sapiens) [4]) | functional effect of the aptamer (TNF-alpha (Homo sapiens) [2]; similar to anti-TNF-alpha mAb)
1 | GGGAGGACGAUGCGGCCACUGGCUAGGAACUCGAGUACUGGGUGGCAGACGACUCGCCCGA [ATK001] | no binding | active | 43 nM | 18 nM | 
2 | GCGGAAGCGUGCUGGGCCCGGCUUGCAGGUCGCCGAAAUGACCGCACACAUAACCCAGAGGUCGAU [ATK007] | no binding |  | 30 nM |  | active

For some of these results: The exact form of at least one protein or probe is not confirmed. For some of these results: No signal at the amounts used counts as a negative. For some of these results: Where a protein sequence is shown, tags need not be part of it.
